# Results from the supplement of paper PMC10338343.
# ± gives the standard deviation. The list shows a part of the results, in another mix than the full data. Many entries were measured with a wide error.
# Test system: MIWI (PIWIL1) piRISC loaded with Kctd7 piRNA (30 nt)
# Experiment: pre-steady-state target cleavage rate (min^-1); MIWI and MILI are mouse PIWI proteins and EfPiwi is from a freshwater sponge; tags in brackets are library labels; higher = faster piRNA-guided slicing of the target
# Conditions: guide: Kctd7 piRNA 5'p-UGUUAAUCUCUCAGAGAAGGUGACAGUGAU; auxiliary factor: 500 nM mouse GTSF1
# Outline: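 A transcribed, DNA-blocked target RNA library (0.1 nM) and 1 nM active affinity-purified piRISC bearing one synthetic guide were incubated in HEPES–potassium acetate buffer at 33 °C for 0–8 or 0–960 min, either with or without 500 nM GTSF1 partner protein. Uncleaved targets were sequenced, normalised to depth and to weakly complementary targets, and pooled over three trials, with k3 capped at 0.0001 min^-1. The pre-steady-state cleavage rate was derived with a burst-and-steady-state fit.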
row,Sequence,pre-steady-state target cleavage rate
1,UAGUGACUCACGAUCUCUGAGAGAUUAACA,0.00958 ± 0.0018
2,UAGUGACAGUGCUUCUCUGAGAGAAUAACA,0.00147 ± 0.0048
3,UACACUGUCACCUUCUCACUCUCUAAUUGA [g14:g28:cont:t1A],0.00103 ± 0.0094
4,AACACUCUCACCUUCUCUGAGAGAUUAACA,0.564 ± 0.035
5,UAGUGACUCACCUUCAGUGAGAGAUUAAGA,0.00239 ± 0.0055
6,UAGUGACAGUGGAUCUCUGAGCAGAUUAACA,0.000178 ± 0.026
7,UAGUGACAGUGCUUCUCUGAGAGAUUUUCA,0.000685 ± 0.0076
8,UACACUGUCACCUUCUCUGAGUGAUAUUGA,0.00215 ± 0.0072
9,UAGUGAGUCACCUUGACUGAGAGAUUAUGA,0.00135 ± 0.0071
10,UAGUGAGUCACCUUCACUGAGAGAUAUUGA,0.00186 ± 0.0061
11,UACACUGUCACCUUGAGUGAGAGAUUAUGA,0.000699 ± 0.021
12,UAGACUGUCACCUUCUCUGAGACUAUAACA,0.000637 ± 0.0066
13,UAGUGACAGUCCUUCUCUGACGAGAUUAACA,0.000915 ± 0.0059
14,UAGUGAGUCACGAACUCUGAGAGAUUAAGA,0.00178 ± 0.004
15,UAGUCUGUCACCUUCUCUGAGUGAUUAUGA,0.00211 ± 0.0061
16,UACACUGUCAGGUUCUCUGAGAGAUAUUGA,0.000877 ± 0.0085
17,UAGUGACAGUGGAAGAGACAGAGAUUAAUA,0.000196 ± 0.051
18,UAGUGACUCACCUUGAGUGAGAGAUAUUGA,0.000682 ± 0.011
19,UAGUGAGUCACCUUCUCUGACAGAUUUUGA,0.00267 ± 0.0051
20,UACACUGUCACCUUCUCUGACUCUAAUUGA [g11:g28:cont:t1A],0.00123 ± 0.0084
21,UAGUGACAGUGGAAGAGUGAGACAUUAUCA,0.000135 ± 0.038
22,UAGUGACAGUCCUUCUCUCAGACAUUAACA,0.000875 ± 0.0072
23,AUCACUCACACCUUCUCUGAGAGAUUAACA,0.587 ± 0.027
24,UACACUGUCACCUUCUCUGAGUCUUUAAGA,0.00194 ± 0.0057

row,Sequence,pre-steady-state target cleavage rate
1,UAGUGACAGACCAUCACUGAGAGAUUAACA,0.0035 ± 0.0038
2,AUCACUGUCACCUUCUCUGAGACUAUAUGA,0.00256 ± 0.0038
3,UAGUGACAGACCUAGACUGAGAGAUUAACA,0.000476 ± 0.016
4,UAGUGACAGUGCUUCUCUGAGAAUUAACA,0.000955 ± 0.0056
5,UAGUCUGUCACGAUCUCUGAGAGAUUUUGA,0.00157 ± 0.0067
6,UAGUGACAGUCCUUCUCUGAGAGAAUAUGA,0.000128 ± 0.034
7,UAGACUGUCACCUUCUCUGUCUGAUUUUGA,0.000568 ± 0.011
8,UAGUGACAGUGCAUCUCUGAGAGAUUAUCA,0.000129 ± 0.02
9,AUCACUGUCACCUUCUCCUGAGAGAUUAACA,0.645 ± 0.17
10,UACACUGUCACCUUCUCUCUGAGAUAUUGA,0.00257 ± 0.0056
11,UAGUGACAGUCCUUCUGUGAGAGAUUAUGA,0.000671 ± 0.0093
12,UAGUGUGUCACCUUCUCACUGAGAUUUUGA,0.000731 ± 0.015
13,UACACUGUCACCUUCUCUGAGUCUAAUUGA [g10:g28:cont:t1A],0.000914 ± 0.011
14,UAGUGACUCACCUUCUCUCACAGAUUAACA,0.00108 ± 0.0078
15,UAGACUGUCACCUUCUCUGACUGAUUAAGA,0.000122 ± 0.014
16,UUCACUGUCACGCUUCUCUGAGAGAUUAACA,0.51 ± 0.02
17,UAGUGACAGUGGAAGAGACUCAGUUUAACA,0.000705 ± 0.0071
18,UAGUGACAGUCGUUCUCUGAGAGAUUAUCA,0.00133 ± 0.0081
19,UAGUGACAGACCUUCUGAGAGAGAUUAACA,0.00209 ± 0.0051
20,UAGUGACAGUCCUUCUCUGACUCAUUAAGA,0.000371 ± 0.02
21,UAGUGACACACCAACUCUGAGAGAUUAUGA,0.000459 ± 0.012
22,UAGUGACUCACCUUCUGACAGAGAUAUUGA,0.000291 ± 0.024
23,UACACUGUCACCUUCUCUGAGUGAUUAUGA,0.00384 ± 0.0056
24,UAGUCUGACACCUUGUCUGAGAGAUUAACA,0.164 ± 0.022

row,Sequence,pre-steady-state target cleavage rate
1,UAGUGACAGACCUUCUCUGAGUGUUUAACA,0.00143 ± 0.0073
2,UUCACUGUCAACUUCUCUGAGAGAUUAACA,0.668 ± 0.028
3,UAGUGAGUCUGGUUCUCUGAGAGAUUAUGA,0.000116 ± 0.068
4,UAGACUGUCACCUUCUCACAGAGAUUAAGA,0.00249 ± 0.0032
5,UAGUGACAGACCUUCUCUGAGUAGAUUAACA,0.00111 ± 0.0099
6,UAGUGACAGUGGAAGAGAGAGACAUUAACA,0.000216 ± 0.04
7,UAGUGACAGUGGCUCUCUGAGAGAUUAACA,0.000165 ± 0.02
8,UAGACUGUUACCUUCUCUGAGAGAUUAACA,0.745 ± 0.039
9,UUUCACUGUCACCUUCUCUGAGAGAUUAACA,0.415 ± 0.04
10,UAGUGACAGUCCUUCUCUGAGAGAUUUUGA,0.000247 ± 0.018
11,UAGUGAGUCACCAACUCUGAGAGAUAUUGA,0.00101 ± 0.0093
12,UAGUGACAGUCGAUCUCUGAGAGAUUAACA,0.00123 ± 0.0043
13,UAGUGACUCACCUUCUCUCAGAGAUAAACA,0.0156 ± 0.0032
14,UUCACUGUCAGCUUCUCUGAGAGAUUAUCA,0.24 ± 0.027
15,UAGUGACAGACCUUCUGAGAGAGAUUAAGA,0.000479 ± 0.017
16,UAGUGCGUCACCUUCUCUGAGAGAUUAACA,0.623 ± 0.04
17,UAGUGAGUCACCUUCUGACUCUCUAAUUGA [g15:g24:cont:t1A],0.00048 ± 0.02
18,UAGUGACAGACCUUCUGCUGAGAGAUUAACA,0.000242 ± 0.024
19,UAGUGACAGUCCAUCUCUGAGAGUUUAACA,0.00295 ± 0.0034
20,UAGACUGUCACGUUCUCUGAGAGAUUUUGA,0.000602 ± 0.011
21,UAGUGACAGUGCUUCUCUGAGAGAAUUACA,0.000243 ± 0.021
22,UAGUGACAGUGGAACUCUGAAGAUUAACA,0.000452 ± 0.026
23,UAGUGACAGUGGAUCUCUGACACAUUAACA,0.000143 ± 0.023

# A different layout for part of the listing above.
row	Sequence	pre-steady-state target cleavage rate
3	UACACUGUCACCUUCUCACUCUCUAAUUGA [g14:g28:cont:t1A]	0.00103 ± 0.0094
4	AACACUCUCACCUUCUCUGAGAGAUUAACA	0.564 ± 0.035
5	UAGUGACUCACCUUCAGUGAGAGAUUAAGA	0.00239 ± 0.0055
6	UAGUGACAGUGGAUCUCUGAGCAGAUUAACA	0.000178 ± 0.026
7	UAGUGACAGUGCUUCUCUGAGAGAUUUUCA	0.000685 ± 0.0076
